Test results as given in PMC7862700.
The list shows a part of the results, in another mix than the full data. At the low end of the ranking, values are background and their order means little.

Amino acid sequences for entries named in this document (tags omitted). A change or cut given only in a name is not applied to a line headed by its entry.
UniProt Q01892: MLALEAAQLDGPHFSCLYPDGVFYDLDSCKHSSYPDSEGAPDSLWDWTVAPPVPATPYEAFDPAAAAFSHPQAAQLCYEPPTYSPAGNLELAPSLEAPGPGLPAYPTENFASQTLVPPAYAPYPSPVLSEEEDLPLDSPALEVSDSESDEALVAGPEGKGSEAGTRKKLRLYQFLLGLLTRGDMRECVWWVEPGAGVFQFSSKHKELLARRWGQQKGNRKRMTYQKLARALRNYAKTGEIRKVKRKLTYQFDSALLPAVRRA
UniProt P41161: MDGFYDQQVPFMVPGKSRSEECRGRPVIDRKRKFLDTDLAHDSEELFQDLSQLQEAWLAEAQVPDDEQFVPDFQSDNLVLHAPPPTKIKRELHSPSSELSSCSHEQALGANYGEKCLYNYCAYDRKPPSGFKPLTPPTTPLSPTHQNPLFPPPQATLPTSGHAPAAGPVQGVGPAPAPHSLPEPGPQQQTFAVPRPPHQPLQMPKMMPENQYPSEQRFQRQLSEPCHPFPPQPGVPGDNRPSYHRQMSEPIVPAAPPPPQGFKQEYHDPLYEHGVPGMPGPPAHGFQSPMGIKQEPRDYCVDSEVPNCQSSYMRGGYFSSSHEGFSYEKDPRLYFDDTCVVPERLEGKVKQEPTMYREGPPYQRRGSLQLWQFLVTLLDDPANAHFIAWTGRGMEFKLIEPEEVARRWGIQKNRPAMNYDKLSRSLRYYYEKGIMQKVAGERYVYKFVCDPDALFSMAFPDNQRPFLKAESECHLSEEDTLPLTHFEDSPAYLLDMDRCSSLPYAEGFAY
UniProt Q99607: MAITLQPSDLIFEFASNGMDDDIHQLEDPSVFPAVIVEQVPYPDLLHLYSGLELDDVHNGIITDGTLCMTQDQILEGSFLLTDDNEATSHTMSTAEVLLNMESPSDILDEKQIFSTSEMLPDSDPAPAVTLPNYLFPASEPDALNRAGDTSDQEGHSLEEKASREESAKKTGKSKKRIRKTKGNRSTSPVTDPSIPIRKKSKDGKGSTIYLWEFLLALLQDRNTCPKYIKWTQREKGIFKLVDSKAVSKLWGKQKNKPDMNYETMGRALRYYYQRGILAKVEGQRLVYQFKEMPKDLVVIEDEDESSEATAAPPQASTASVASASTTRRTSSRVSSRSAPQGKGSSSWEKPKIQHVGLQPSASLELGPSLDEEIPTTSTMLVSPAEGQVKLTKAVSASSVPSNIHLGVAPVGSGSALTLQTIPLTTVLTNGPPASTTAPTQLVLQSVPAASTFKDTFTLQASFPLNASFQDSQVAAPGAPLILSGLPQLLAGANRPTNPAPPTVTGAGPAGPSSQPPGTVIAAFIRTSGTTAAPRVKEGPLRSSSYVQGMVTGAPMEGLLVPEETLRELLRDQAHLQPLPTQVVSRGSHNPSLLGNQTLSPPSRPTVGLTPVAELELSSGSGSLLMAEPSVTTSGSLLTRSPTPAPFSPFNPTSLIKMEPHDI

Key:
Assay in all cases: DAPPL (digital affinity profiling via proximity ligation, sequencing)
Conditions in all cases: 10 mM Tris-HCl pH 7.5, 50 mM NaCl, 1 mM DTT, 4% glycerol, room temperature, 30 min; GST-TFs on glutathione beads, 16-mer random dsDNA library, 0.1% …; high values mean tight binding; double strand, one strand shown; scale: fold enrichment (6-mer frequency, TF over GST control)
[1] = biological target: T1, FLI1 (UniProt Q01543)
T1 sequence: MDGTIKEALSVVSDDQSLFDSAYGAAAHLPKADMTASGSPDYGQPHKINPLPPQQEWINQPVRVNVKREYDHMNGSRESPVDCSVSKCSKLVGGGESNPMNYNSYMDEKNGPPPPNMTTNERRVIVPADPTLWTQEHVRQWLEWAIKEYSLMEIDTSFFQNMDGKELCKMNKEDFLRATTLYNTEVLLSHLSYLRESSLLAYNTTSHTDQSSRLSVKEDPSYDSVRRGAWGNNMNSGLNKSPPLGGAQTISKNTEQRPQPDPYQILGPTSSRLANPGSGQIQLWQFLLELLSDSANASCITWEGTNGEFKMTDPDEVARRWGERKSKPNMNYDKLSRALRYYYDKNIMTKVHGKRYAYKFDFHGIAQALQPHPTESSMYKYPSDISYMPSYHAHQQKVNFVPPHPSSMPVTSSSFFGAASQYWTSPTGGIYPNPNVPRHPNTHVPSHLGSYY

[2] = biological target: T2, EHF (UniProt Q9NZC4)
T2 sequence: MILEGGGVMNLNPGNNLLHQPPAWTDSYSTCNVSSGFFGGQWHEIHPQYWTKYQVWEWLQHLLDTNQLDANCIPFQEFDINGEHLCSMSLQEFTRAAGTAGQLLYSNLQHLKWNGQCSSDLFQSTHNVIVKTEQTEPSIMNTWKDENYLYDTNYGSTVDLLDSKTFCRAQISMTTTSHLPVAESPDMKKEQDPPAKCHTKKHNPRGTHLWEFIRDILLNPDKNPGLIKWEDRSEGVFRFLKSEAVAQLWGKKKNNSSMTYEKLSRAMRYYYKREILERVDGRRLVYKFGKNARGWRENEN

[3] = biological target: SPIB (UniProt Q01892)
[4] = biological target: ETV5 (UniProt P41161)
[5] = biological target: ELF4 (UniProt Q99607)
[6] = biological target: T3, ETV2 (UniProt O00321)
T3 sequence: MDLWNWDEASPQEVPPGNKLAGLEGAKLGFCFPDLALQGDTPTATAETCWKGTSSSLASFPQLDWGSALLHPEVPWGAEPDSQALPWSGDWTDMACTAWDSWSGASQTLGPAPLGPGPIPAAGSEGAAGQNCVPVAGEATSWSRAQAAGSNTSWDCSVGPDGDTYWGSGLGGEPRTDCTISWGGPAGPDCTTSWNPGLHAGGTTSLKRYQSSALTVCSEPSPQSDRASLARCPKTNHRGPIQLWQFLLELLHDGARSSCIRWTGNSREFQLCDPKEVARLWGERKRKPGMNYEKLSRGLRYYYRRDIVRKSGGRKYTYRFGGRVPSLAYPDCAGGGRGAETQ

[7] = biological target: T4, ETV3L (UniProt Q6ZN32)
T4 sequence: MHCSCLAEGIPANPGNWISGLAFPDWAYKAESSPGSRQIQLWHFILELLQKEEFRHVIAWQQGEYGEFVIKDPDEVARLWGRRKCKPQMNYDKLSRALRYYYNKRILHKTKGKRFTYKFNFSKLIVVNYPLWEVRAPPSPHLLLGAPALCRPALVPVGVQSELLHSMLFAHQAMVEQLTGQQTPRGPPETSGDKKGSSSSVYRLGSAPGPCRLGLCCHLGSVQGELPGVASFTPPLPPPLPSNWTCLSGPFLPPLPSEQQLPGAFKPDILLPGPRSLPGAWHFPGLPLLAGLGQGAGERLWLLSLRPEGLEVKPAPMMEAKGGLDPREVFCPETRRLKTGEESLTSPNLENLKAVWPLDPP

Row | Sequence | binding signal [1] | binding signal [2] | binding signal [3] | binding signal [4] | binding signal [5] | binding signal [6] | binding signal [7]
1 | GACTAG | 0.709 | 0.737 | 0.735 | 0.692 | 0.77 | 0.83 | 0.732
2 | AGACCA | 0.666 | 0.664 | 0.645 | 0.611 | 0.668 | 0.626 | 0.603
3 | AGGACG | 0.501 | 0.473 | 0.504 | 0.499 | 0.451 | 0.453 | 0.542
4 | GGCAGG | 0.628 | 0.614 | 0.611 | 0.629 | 0.55 | 0.624 | 0.649
5 | CAGCCG | 0.66 | 0.693 | 0.633 | 0.61 | 0.687 | 0.603 | 0.69
6 | GAGGGC | 0.639 | 0.596 | 0.618 | 0.573 | 0.581 | 0.678 | 0.557
7 | GGTTCG | 0.791 | 0.804 | 0.774 | 0.848 | 0.778 | 0.827 | 0.828
8 | TGGGGC | 0.801 | 0.89 | 0.777 | 0.757 | 0.85 | 0.744 | 0.841
9 | ATCGGC | 0.717 | 0.626 | 0.61 | 0.644 | 0.701 | 0.705 | 0.689
10 | AACAGT | 0.662 | 0.698 | 0.734 | 0.686 | 0.66 | 0.736 | 0.646
11 | GAGCAG | 0.639 | 0.602 | 0.655 | 0.602 | 0.639 | 0.636 | 0.6
12 | GACGGA | 0.494 | 0.565 | 0.535 | 0.554 | 0.457 | 0.517 | 0.483
13 | AAGTGA | 0.604 | 0.722 | 0.598 | 0.655 | 0.678 | 0.624 | 0.648
14 | GAGCGA | 0.604 | 0.64 | 0.57 | 0.596 | 0.668 | 0.735 | 0.669
15 | ACGGAG | 0.368 | 0.378 | 0.402 | 0.328 | 0.36 | 0.367 | 0.393
16 | AGGTCA | 0.739 | 0.712 | 0.765 | 0.746 | 0.759 | 0.73 | 0.755
17 | CAGGAC | 0.749 | 0.704 | 0.825 | 0.776 | 0.745 | 0.729 | 0.816
18 | GGGGTT | 0.948 | 0.769 | 0.851 | 0.842 | 0.856 | 0.98 | 0.949
19 | TAGTCG | 0.482 | 0.436 | 0.452 | 0.447 | 0.432 | 0.521 | 0.442
20 | GAAGGC | 0.787 | 0.923 | 0.932 | 0.894 | 0.842 | 0.908 | 0.961

Row | Sequence | binding signal [1] | binding signal [2] | binding signal [3] | binding signal [4] | binding signal [5] | binding signal [6] | binding signal [7]
21 | CGTCAG | 0.827 | 0.807 | 0.779 | 0.781 | 0.855 | 0.829 | 0.831
22 | CACGGG | 0.824 | 0.829 | 0.772 | 0.846 | 0.842 | 0.805 | 0.737
23 | TCCAGG | 0.844 | 0.836 | 0.921 | 0.859 | 0.857 | 0.772 | 0.864
24 | GTAAAG | 0.955 | 0.908 | 0.903 | 0.952 | 0.844 | 0.955 | 0.897
25 | CAAGTC | 0.881 | 0.851 | 0.814 | 0.795 | 0.843 | 0.869 | 0.857
26 | GTAAGG | 0.821 | 0.817 | 0.763 | 0.766 | 0.721 | 0.732 | 0.763
27 | GCCAGG | 0.437 | 0.423 | 0.392 | 0.419 | 0.436 | 0.435 | 0.451
28 | AGTGTG | 0.669 | 0.691 | 0.742 | 0.669 | 0.662 | 0.77 | 0.606
29 | GTGTGT | 0.581 | 0.529 | 0.541 | 0.579 | 0.503 | 0.544 | 0.518
30 | CCAGGA | 0.679 | 0.722 | 0.736 | 0.713 | 0.66 | 0.673 | 0.657
31 | ACCGTA | 0.893 | 0.846 | 0.87 | 0.834 | 0.906 | 0.896 | 0.881
32 | CTGAGA | 0.79 | 0.77 | 0.702 | 0.773 | 0.783 | 0.843 | 0.816
33 | AAGGGG | 0.93 | 0.863 | 0.927 | 0.973 | 0.94 | 0.853 | 0.969
34 | GGGGAC | 0.487 | 0.439 | 0.455 | 0.441 | 0.45 | 0.474 | 0.425
35 | GGGGGG | 0.592 | 0.551 | 0.615 | 0.581 | 0.546 | 0.571 | 0.698
36 | AGTCTG | 0.683 | 0.64 | 0.615 | 0.587 | 0.58 | 0.589 | 0.558
37 | GCGGGG | 0.466 | 0.44 | 0.465 | 0.436 | 0.494 | 0.501 | 0.508
38 | ACAGAC | 0.75 | 0.822 | 0.806 | 0.809 | 0.86 | 0.851 | 0.794
39 | GCATGT | 0.771 | 0.742 | 0.769 | 0.768 | 0.856 | 0.81 | 0.797
40 | CCCAGT | 0.641 | 0.657 | 0.667 | 0.698 | 0.618 | 0.641 | 0.673

Row | Sequence | binding signal [1] | binding signal [2] | binding signal [3] | binding signal [4] | binding signal [5] | binding signal [6] | binding signal [7]
41 | GAGGAG | 0.221 | 0.196 | 0.202 | 0.204 | 0.218 | 0.179 | 0.224
42 | AGCCAA | 0.903 | 0.87 | 0.886 | 0.875 | 0.922 | 0.851 | 0.871
43 | AGACGG | 0.366 | 0.38 | 0.379 | 0.39 | 0.344 | 0.375 | 0.345
44 | GATGTG | 0.913 | 0.875 | 0.914 | 0.949 | 0.851 | 0.836 | 0.956
45 | CGGGGT | 0.654 | 0.614 | 0.642 | 0.639 | 0.609 | 0.606 | 0.618
46 | AGCGGA | 0.769 | 0.85 | 0.784 | 0.874 | 0.676 | 0.857 | 0.758
47 | ACAGGC | 0.705 | 0.742 | 0.66 | 0.676 | 0.669 | 0.622 | 0.751
48 | TTAGAC | 0.925 | 0.827 | 0.799 | 0.824 | 0.794 | 0.904 | 0.867
49 | CAGAGA | 0.636 | 0.633 | 0.564 | 0.644 | 0.636 | 0.657 | 0.643
50 | CTGTCG | 0.572 | 0.558 | 0.566 | 0.584 | 0.56 | 0.608 | 0.494
51 | GTAGCC | 0.937 | 0.873 | 0.885 | 0.884 | 0.956 | 0.972 | 0.935
52 | CGGGGG | 0.465 | 0.446 | 0.486 | 0.448 | 0.446 | 0.493 | 0.507
53 | GAGTGT | 0.545 | 0.525 | 0.52 | 0.508 | 0.532 | 0.447 | 0.534
54 | GCGCGA | 0.697 | 0.761 | 0.755 | 0.733 | 0.749 | 0.767 | 0.72
55 | ACGTCG | 0.66 | 0.646 | 0.633 | 0.581 | 0.616 | 0.64 | 0.66
56 | CCTAGT | 0.945 | 0.919 | 0.992 | 0.909 | 0.929 | 0.909 | 0.883
57 | GTAAGT | 0.757 | 0.74 | 0.702 | 0.802 | 0.716 | 0.743 | 0.716
58 | GCGCAA | 0.823 | 0.894 | 0.748 | 0.815 | 0.811 | 0.836 | 0.861
59 | GGCGAT | 0.805 | 0.807 | 0.792 | 0.782 | 0.804 | 0.93 | 0.741
60 | GGGATA | 0.784 | 0.79 | 0.815 | 0.768 | 0.804 | 0.688 | 0.784

Exported field by field: part of the list above.
AGCGGA
  binding signal [1] = 0.769; binding signal [2] = 0.85; binding signal [3] = 0.784; binding signal [4] = 0.874; binding signal [5] = 0.676; binding signal [6] = 0.857; binding signal [7] = 0.758
ACAGGC
  binding signal [1] = 0.705; binding signal [2] = 0.742; binding signal [3] = 0.66; binding signal [4] = 0.676; binding signal [5] = 0.669; binding signal [6] = 0.622; binding signal [7] = 0.751
